Where “and” joins values, the source holds several entries; their conditions need not be identical. Identical values can stand only once. The list shows a part of the results. Repeats are few or missing, and single values can be far off.

The source of these data is the supplement of paper PMC8047044.

In this test the test system is Neuro-2a. The test is described as follows: neurite formation score, plate-normalized to DMSO control mean 5.04 (score (0-8 scale)); higher = more or longer neurites. As to conditions: 10 µM.
`CC(=O)Nc1cccc(-n2c(=O)n(C3CC3)c(=O)c3c(Nc4ccc(I)cc4F)n(C)c(=O)c(C)c32)c1` came in with a neurite formation score of 2.21. As for `Cc1ccc2nc(NCCN)c3ncc(C)n3c2c1`, the neurite formation score was 4.42 and 3.76. For the compound `CO[C@H]1C[C@@H]2CC[C@@H](C)[C@@](O)(O2)C(=O)C(=O)N2CCCC[C@H]2C(=O)O[C@H]([C@H](C)C[C@@H]2CC[C@@H](O)[C@H](OC)C2)CC(=O)[C@H](C)/C=C(\C)[C@@H](O)[C@@H](OC)C(=O)[C@H](C)C[C@H](C)/C=C/C=C/C=C/1C` [Rapamycin (Sirolimus)], the neurite formation score turned out to be 4.19. As for `C1=N/C2=N/c3ccc(OCCN4CCCC4)c(c3)COC/C=C/COCc3cccc(c3)C(=C1)N2` [Pacritinib], the neurite formation score amounted to 0.76.

`CNC(=O)c1c(F)cccc1Nc1nc(Nc2cc3c(cc2OC)CCN3C(=O)CN(C)C)nc2[nH]ccc12` yielded a neurite formation score of 4.76. As for `CC(C)n1nc(-c2ccc3oc(N)nc3c2)c2c(N)ncnc21`, the neurite formation score is 4.09. Take `O=C(c1ccc(/C=C/c2n[nH]c3ccccc23)cc1)N1CCNCC1`: the neurite formation score worked out at 5.08. As to `CC1=CC(=O)C(C(C)C)=C/C1=N/OC(=O)c1ccccc1C` [Poloxin], the neurite formation score was determined as 0.41. Compound `CC(C)CC(=O)Nc1n[nH]c2c1CN(C(=O)C1CCN(C)CC1)C2(C)C` came in with a neurite formation score of 4.19.

Compound `O=c1c(O)c(-c2ccc(O)c(O)c2)oc2cc(O)cc(O)c12` [Quercetin] returned a neurite formation score of 5.19. Then `Cn1c(=O)n(-c2ccc(C(C)(C)C#N)cc2)c2c3cc(-c4cnc5ccccc5c4)ccc3ncc21`, with 3.85; and `COc1cc(N2CCC(N3CCN(C)CC3)CC2)ccc1Nc1ncnc(Nc2ccccc2S(=O)(=O)C(C)C)n1`, with 4.88.

In turn, `O=c1oc2c(O)c(O)cc3c(=O)oc4c(O)c(O)cc1c4c23` [Ellagic acid] had a neurite formation score of 2.76. The compound `CO[C@H]1C[C@@H]2CC[C@@H](C)[C@@](O)(O2)C(=O)C(=O)N2CCCC[C@H]2C(=O)O[C@H]([C@H](C)C[C@@H]2CC[C@@H](OCCO)[C@H](OC)C2)CC(=O)[C@H](C)/C=C(\C)[C@@H](O)[C@@H](OC)C(=O)[C@H](C)C[C@H](C)/C=C/C=C/C=C/1C` [Everolimus (RAD001)] had a neurite formation score of 4.19.

`CCCCCCCCCCCCCCCCCCOP(=O)([O-])OC1CC[N+](C)(C)CC1` [Perifosine]: the neurite formation score is -0.147. Take `CNc1nc(Nc2cnn(C3CCN(C4COC4)CC3F)c2Cl)ncc1C(F)(F)F` (stereo unspecified): the neurite formation score is 5.19.

As for `O=C(NCCCNc1nc(Nc2cccc(CN3CCOCC3)c2)ncc1C1CC1)C1CCC1`, the neurite formation score worked out at 5.08.

Compound `CN(C)c1nc2c(Br)c(Br)c(Br)c(Br)c2[nH]1` gave a neurite formation score of 5.41.

Compound `CCOc1cc2ncc(C#N)c(Nc3ccc(OCc4ccccn4)c(Cl)c3)c2cc1NC(=O)/C=C/CN(C)C` [Neratinib (HKI-272)] returned a neurite formation score of 1.42.

`O=[N+]([O-])c1ccc(Nc2nc(N3CCOCC3)nc(N3CCOCC3)n2)cc1` had a neurite formation score of 3.86.

Take `CC(C)(C)NS(=O)(=O)c1cncc(-c2cc(F)c3nc(N)nn3c2)c1`: the neurite formation score was determined as 5.08.

`CO[C@H]1C[C@@H]2CC[C@@H](C)[C@@](O)(O2)C(=O)C(=O)N2CCCC[C@H]2C(=O)O[C@H]([C@H](C)C[C@@H]2CC[C@@H](OP(C)(C)=O)[C@H](OC)C2)CC(=O)[C@H](C)/C=C(\C)[C@@H](O)[C@@H](OC)C(=O)[C@H](C)C[C@H](C)/C=C/C=C/C=C/1C` [Ridaforolimus (Deforolimus, MK-8669)] returned a neurite formation score of 1.19.

In turn, `CC(C)(C)n1nc(-c2ccc(Cl)cc2)c2c(N)ncnc21` yielded a neurite formation score of 3.85. `CCN(CC)CCNC(=O)c1c(C)[nH]c(/C=C2\C(=O)Nc3ccc(F)cc32)c1C` [Sunitinib] had a neurite formation score of 2.09.

Compound `O=C(Nc1c[nH]nc1-c1nc2ccc(CN3CCOCC3)cc2[nH]1)NC1CC1` showed a neurite formation score of 2.08. Then `NCC(=O)Nc1ccc(-n2nc(C(F)(F)F)cc2-c2ccc3c(ccc4ccccc43)c2)cc1`, with 3.88; and `COc1ncc(-c2ccc3nccc(-c4ccnnc4)c3c2)cc1NS(=O)(=O)c1ccc(F)cc1F`, with 1.09; and `Cn1cnc2c(F)c(Nc3ccc(Br)cc3Cl)c(C(=O)NOCCO)cc21` [AZD6244 (Selumetinib)], with 5.19. Compound `C=CC(=O)N1CCC[C@@H](n2nc(-c3ccc(Oc4ccccc4)cc3)c3c(N)ncnc32)C1` showed a neurite formation score of 1.21. Take `Cc1[nH]c(/C=C2\C(=O)Nc3ccc(S(=O)(=O)N(C)c4cccc(Cl)c4)cc32)c(C)c1C(=O)N1CCN(C)CC1`: the neurite formation score was found to be 1.54.

For the compound `COc1cc(C(=O)NC2CCN(C)CC2)c(F)cc1Nc1ncc2c(n1)N(C1CCCC1)CC(F)(F)C(=O)N2C`, the neurite formation score came to 4.52.
